Some of the results follow. The main result of the screen is listed elsewhere. These columns were measured beside it and carry no call. Compounds called inactive in the main read-out are mostly missing here. Potencies come from curve fits of mixed quality, noted in brackets.
Experiment: qHTS Assay to Find Inhibitors of Chronic Active B-Cell Receptor Signaling
Details: ABC-DLBCL IkBa-CBG/CBR reporter, luminescence ratio (green luciferase fused to IkBa over red control in TMD8 lymphoma cells), 4 h; measured here: CBR red luminescence, cell number
In short: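 Compounds up to 46 uM were incubated four hours with TMD8 cells whose green CBG68 luciferase is fused to IkappaBalpha; red CBR luminescence normalised the signal, and concentration-effect curves were fitted to fusion, red and ratio data.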

Row | Compound | AC50
1 | COc1cc(C(=S)N2CCN(C(c3ccccc3)c3ccccc3)CC2)cc(OC)c1O | 15.8 µM [falling, single point]
2 | Cc1cc2c(sc3ccccc32)c(C)n1 | 35.5 µM [rising, single point]
3 | O=C(O)c1ccc(N=NN2CCCCC2)cc1 | 4.47 µM [falling, partial curve]
4 | O=C(Nc1ccccc1)Nc1ccc(Cl)c([N+](=O)[O-])c1 | 32.6 µM [falling, single point]
5 | CC(/C=N\Nc1nnc2c(n1)[nH]c1c(C)cccc12)=C\c1ccco1 | 7.94 µM [falling, partial curve, poor fit]
6 | Cc1ccc(NC(=O)CCc2ccc(S(=O)(=O)NC3CCCCC3)cc2)cc1 | 35.5 µM [falling, single point]
7 | C=CCN(CC=C)C(=O)c1ccccc1NC(=O)c1ccccc1C | 2.82 µM [falling, partial curve, poor fit]
8 | CCOc1ccc(Nc2ccc([N+](=O)[O-])c3nonc23)cc1 | 0.708 µM [rising, partial curve, poor fit]
9 | COc1cc(NC(=O)c2cnn3c(C)cc(C)nc23)c(OC)cc1Cl | 20.6 µM [rising, partial curve, poor fit]
10 | COc1cc(C(=O)NCCC2=CCCCC2)ccc1OCc1c(C)noc1C | 6.51 µM [rising, partial curve, poor fit]
11 | Cc1cc(C)c(C(=O)/C=C/c2ccco2)c(=O)[nH]1 | 11.2 µM [falling, partial curve, poor fit]
12 | COc1cc(NC(=O)c2oc3ccccc3c2C)ccc1NC(=O)c1ccco1 | 8.91 µM [falling, single point]
13 | O=C(O)c1ccccc1NS(=O)(=O)c1ccc(NN=Cc2ccc(F)cc2)c([N+](=O)[O-])c1 | 20.6 µM [rising, single point]
14 | Cc1nc2nc[nH]n2c(=O)c1NS(=O)(=O)c1ccc([N+](=O)[O-])cc1 | 35.5 µM [rising, single point]
15 | Nc1nc2ccccc2n1C(=O)c1ccc(F)cc1 | 2.24 µM [falling, full curve]
16 | Cc1cccc(S(=O)(=O)Nc2ccc(-c3ccc4nncn4n3)cc2)c1 | 23.1 µM [rising, partial curve, poor fit]
17 | O=C1CC(C(=O)O)S/C(=N\NC(=O)c2ccc(F)cc2)N1 (stereo not drawn) | 2.91 µM [rising, full curve, poor fit]
18 | O=C(NCc1ccccc1)C1CCCN(C(=O)Nc2ccccc2)C1 (stereo not drawn) | 23.1 µM [falling, single point]

An excerpt of these results, as a markdown table.

| Row | Compound | AC50 |
| --- | --- | --- |
| 6 | Cc1ccc(NC(=O)CCc2ccc(S(=O)(=O)NC3CCCCC3)cc2)cc1 | 35.5 µM [falling, single point] |
| 7 | C=CCN(CC=C)C(=O)c1ccccc1NC(=O)c1ccccc1C | 2.82 µM [falling, partial curve, poor fit] |
